According to PubChem BioAssay AID504467 (National Center for Advancing Translational Sciences (NCATS), 2011):
Hit rate of the full screen: of about 330,000 compounds, about 7,700 (2.3%) were called active. Inconclusive results, whose numbers are uncertain, are shown with a selection of clear calls. Calls come from the whole dose curve; as a rule, active = well fitted inhibition curve with a large enough effect; inconclusive = small, poorly fitted or top-dose-only effect, or effect the other way; inactive = flat fitted curve, though single readings scatter. A potency beside an inconclusive call is a rough fit, not a confirmed value.

Assay: qHTS screen for small molecules that inhibit ELG1-dependent DNA repair in human embryonic kidney (HEK293T) cells expressing luciferase-tagged ELG1; note: nearly all actives have a fitted effect of over 55% in size
Conditions: HEK293T ELG1-luciferase reporter, luminescence, 16 h, DNA damage induced by 5-fluorouridine; activity change, negative = inhibition: at 46.1 µM (top of the series)
Method in brief: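 Quantitative HTS, concentration-response format. 2,000 cells/well co-treated with 5-fluorouridine and compound, 16 hr in 5% CO2 at 37 °C; ONE-Glo luminescence read after 30 min.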
% is set by controls: 0 for no effect and ±100 for the full control effect; potency is the fitted concentration of half-maximal effect.

Structure (SMILES) | Potency | activity change, negative = inhibition
O=C(COC(=O)c1ccc(=O)[nH]c1)Nc1cccc(S(=O)(=O)N2CCOCC2)c1 | inconclusive: 3.66 µM [inhibitor, single point] | –
O=C(CN(c1cccc(C(F)(F)F)c1)S(=O)(=O)c1ccc(Cl)c([N+](=O)[O-])c1)NCc1ccccc1Cl | inconclusive: 29.1 µM [inhibitor, single point] | –
COCC(=O)N(Cc1cc2cc(C)ccc2[nH]c1=O)c1cccc(C)c1C | – | inactive: 0.21%
Cc1nc(SCC2(C)CC2(Cl)Cl)n[nH]1 (centres undefined) | – | inactive: -4.06%
CCCc1[nH]n(-c2nc3ccccc3s2)c(=O)c1C=NCCCOC | inconclusive: 23.1 µM [activator, single point] | –
CN(C)c1ccc(/C=C(/C(=O)c2ccc(Cl)cc2Cl)n2cncn2)cc1 | inconclusive: 18.4 µM [inhibitor, single point] | –
CCOC(=O)C1=C(COC(=O)c2cc(OC)c(OC)c(OC)c2)NC(=O)NC1C (centres undefined) | – | inactive: -18%
Cc1ccc(Nc2nnc(SCC(=O)Nc3ccc(S(=O)(=O)N4CCOCC4)cc3)s2)cc1 | – | inactive: -1.77%
O=C(N/N=C/c1ccsc1)c1ccc2c(c1)OCO2 | inconclusive: 9.2 µM [activator, partial curve] | –
C=C(C)Cn1c(SCC(=O)N/N=C/c2c(O)ccc3ccccc23)nc2ccccc2c1=O | inconclusive: 25.9 µM [inhibitor, partial curve, poor fit] | –
COC(=O)C1=C(C)N(C)C(C)=C(C(=O)OC)C1c1ccc(Cl)cc1 | inconclusive: 16.4 µM [activator, partial curve, poor fit] | –
COc1cc2c(cc1OC)C(c1ccc(-c3ccc(Cl)cc3Cl)o1)=NCC2 | inconclusive: 20.6 µM [inhibitor, partial curve] | –
CC(C)c1nnc(NC(=O)c2cc3ccccc3o2)s1 | inconclusive: 7.3 µM [activator, partial curve] | –
CC(=O)NCC1CCCN(C(=O)c2ccc(OC3CCN(Cc4ccccn4)CC3)cc2)C1 (centres undefined) | inconclusive: 29.1 µM [activator, partial curve, poor fit] | –
Cc1ccc(C)c(NC(=O)CSc2nc3c(oc4ccccc43)c(=O)n2-c2ccccc2)c1 | inconclusive: 20.6 µM [inhibitor, partial curve] | –
COc1cc(C(=O)NCCC(=O)N2CCN(C)CC2)cc(OC)c1OC | inconclusive: 20.6 µM [activator, single point] | –
O=S(=O)(NC1CC1)c1ccc(Cl)cc1F | – | inactive: 6.63%
O=C(NCCc1csc(-c2cccnc2)n1)c1cccc2ccccc12 | inconclusive: 25.9 µM [inhibitor, partial curve, poor fit] | –
c1ccc(C(Cc2nc(-c3ccccn3)no2)c2ccccc2)cc1 | inconclusive: 5.8 µM [activator, partial curve] | –
Cc1ccc(-c2cc3nc(-c4ccc(Br)cc4)cc(N)n3n2)cc1 | – | inactive: -0.93%
COc1cccc(-n2c(SCC(=O)Nc3cc(C)on3)nc3c([nH]c4ccccc43)c2=O)c1 | inconclusive: 20.6 µM [inhibitor, partial curve] | –
COc1ccc2oc(=O)c(C(=O)Oc3ccc(NC(C)=O)cc3)cc2c1 | – | inactive: 4.81%
Cc1ccccc1OCCn1c(CCNC(=O)C(C)C)nc2ccccc21 | – | inactive: 13%

Structure (SMILES) | Potency | activity change, negative = inhibition
Cc1cc(C)cc(N(CCC#N)C(=O)CSC2=Nc3ccccc3C3CC=NN23)c1 (centres undefined) | inconclusive: 20.6 µM [inhibitor, single point] | –
Cc1cccc(NC(=S)NCCC(c2ccccc2)c2ccccc2)c1 | inconclusive: 20.6 µM [inhibitor, partial curve, poor fit] | –
Cc1ccc(S(=O)(=O)C2(C(=O)N3CCCCCC3)CC2)cc1 | inconclusive: 0.082 µM [inhibitor, partial curve, poor fit] | –
Cc1ccc(N=Cc2c(O)ccc3ccccc23)cc1F | inconclusive: 1.03 µM [activator, single point] | –
CC(=O)N(c1ccccc1C)C1CCCC1 | – | inactive: 4.18%
CS(=O)(=O)c1ccc(C(=O)N2CCN(C(=O)c3ccco3)CC2)cc1 | – | inactive: 25.4%
COc1ccc(Br)cc1C(=O)Nc1ccc(N2CCN(S(C)(=O)=O)CC2)cc1 | – | inactive: -7.2%
CC(C)Oc1ccc(CCN=C(N)N=C(N)N)cc1Cl | inconclusive: 29.1 µM [activator, single point] | –
CCn1c(C)nc2cc(C(=O)NNC(=S)Nc3ccc(F)cc3)ccc21 | inconclusive: 29.1 µM [activator, single point] | –
CCOC(=O)c1sc2nc3c(cc2c1N)COC(C)(C)C3 | inconclusive: 3.66 µM [activator, full curve] | –
CCc1ccc(NC(=O)CSc2nc3ccccc3nc2N2CCCCC2)cc1 | inconclusive: 29.1 µM [activator, single point] | –
CCn1nc(NC(=O)C2CCCO2)c2cc3cccc(C)c3nc21 (centres undefined) | inconclusive: 29.1 µM [activator, single point] | –
CC(CN1CCOCC1)OC(=O)c1cccc(Cl)c1 (centres undefined) | – | inactive: -0.288%
Cc1ccc(C)c(NC(=S)N2CCCCC2CO)c1 (centres undefined) | – | inactive: 10.1%
Cc1cc(/C=C2/NC(=O)N(c3ccccc3)C2=O)c(C)n1C(C)C | inconclusive: 3.66 µM [activator, full curve] | –
C=CCNc1oc(-c2cccc3ccccc23)nc1C#N | inconclusive: 11.6 µM [activator, partial curve] | –
Cn1cc(-c2ccno2)c(C(=O)O)n1 | – | inactive: 6.12%
CC(=O)OC1COC(n2c(O)c(N=NC(N)=S)c3ccccc32)C(OC(C)=O)C1OC(C)=O (centres undefined) | – | inactive: -4.41%
O=C(Cn1nc(Cc2cccnc2)c2ccccc2c1=O)NCc1ccc2c(c1)OCO2 | inconclusive: 2.31 µM [inhibitor, partial curve, poor fit] | –
Cc1ccc(NC(=O)c2nc[nH]c2C(=O)NCc2ccccc2)cc1 | – | inactive: -25.5%
Cc1ccc(C)c(N2CCN(C(=O)c3ccc4c(=O)n5c(nc4c3)CCCCC5)CC2)c1 | inconclusive: 18.3 µM [inhibitor, partial curve] | –
CCn1c(SCC(=O)NC2CCCCC2)nc2c(c1=O)SCC2 | – | inactive: 1.69%
O=C(/C=C/c1ccc2c(c1)OCO2)c1ccco1 | inconclusive: 20.6 µM [activator, single point] | –

Quoted from the listing.
Under Potency, COC(=O)C1=C(C)N(C)C(C)=C(C(=O)OC)C1c1ccc(Cl)cc1 is entered as inconclusive: 16.4 µM [activator, partial curve, poor fit]
Under activity change, negative = inhibition, CC(CN1CCOCC1)OC(=O)c1cccc(Cl)c1 (centres undefined) is entered as inactive: -0.288%
Under Potency, O=C(/C=C/c1ccc2c(c1)OCO2)c1ccco1 is entered as inconclusive: 20.6 µM [activator, single point]
Under Potency, O=C(Cn1nc(Cc2cccnc2)c2ccccc2c1=O)NCc1ccc2c(c1)OCO2 is entered as inconclusive: 2.31 µM [inhibitor, partial curve, poor fit]

The list continues:

Structure (SMILES) | Potency | activity change, negative = inhibition
CCOC(=O)c1nnn(-c2nonc2-c2ccccc2)c1C | – | inactive: 16.7%
Cn1c(=O)[nH]c(=O)c2c1nc(CN1CCN(c3ccccc3F)CC1)n2CCCc1ccccc1 | active: 6.51 µM | –
O=C(CSc1ccc(-c2nc3ccccc3[nH]2)cn1)Nc1ccc2c(c1)OCCO2 | inconclusive: 5.17 µM [activator, partial curve] | –
CCCCCCCC#Cc1ccccc1/C=N/S(=O)c1ccc(C)cc1 (centres undefined) | – | inactive: 14%
Cc1ccsc1/C=C(\C#N)C(=O)NCc1ccco1 | inconclusive: 18.4 µM [activator, partial curve] | –
CCc1ccc2nc(N3C(=O)c4oc5ccccc5c(=O)c4C3c3ccc(OC)c(OC)c3)sc2c1 (centres undefined) | – | inactive: 1.25%
COc1ccc(-c2csc(-c3ccccc3)n2)c(OC)c1 | inconclusive: 10.3 µM [activator, partial curve] | –
COc1ccc(C2=NOC(C(=O)Nc3ccc4c(c3)OCO4)C2)cc1OC (centres undefined) | inconclusive: 0.73 µM [inhibitor, partial curve, poor fit] | –
COc1cccc(CNc2ccc(Br)cn2)c1O | inconclusive: 6.51 µM [activator, partial curve] | –
Cc1ccc(-c2cc(C(=O)NN=C3CCCC3)c3ccccc3n2)cc1 | inconclusive: 29.1 µM [activator, single point] | –
O=C(Nc1ccc(NC(=O)c2cccs2)cc1Cl)c1ccco1 | inconclusive: 14.6 µM [activator, partial curve] | –
Cc1cc(N2CCN(c3nc(-c4ccccc4)cs3)CC2)c2ccccc2n1 | inconclusive: 29.1 µM [inhibitor, single point] | –
COc1ccccc1C(=O)NCC(=O)N/N=C(\C)Cc1ccccc1 | inconclusive: 23.1 µM [activator, partial curve, poor fit] | –
CCCc1cc(=O)oc2cc(OCC(=O)Nc3ccc(S(N)(=O)=O)cc3)ccc12 | inconclusive: 23.1 µM [activator, partial curve, poor fit] | –
COc1ccc(-c2onc(C)c2-c2cnn(-c3ccccc3)c2)c(O)c1 | inconclusive: 9.2 µM [inhibitor, partial curve, poor fit] | –
CCC(C)n1c(-c2cccs2)nc2nc3ccccc3nc21 (centres undefined) | inconclusive: 23.1 µM [inhibitor, partial curve, poor fit] | –
O=C1CCC/C=C\C[C@H](CC(=O)N(CCO)Cc2ccccc2)C(=O)N2CCC[C@@H]2CO1 | inconclusive: 20.6 µM [activator, single point] | –
O=C(CCNS(=O)(=O)c1cccs1)N1CCc2ccccc2C1 | inconclusive: 29.1 µM [activator, single point] | –
CCOc1ccc(NC(=O)CN(C)C(=O)c2cn(-c3ccccc3)nc2-c2cccs2)cc1OCC | active: 20.6 µM | –
COc1ccc(-c2cc3nc(CCl)[nH]c(=O)c3s2)cc1 | inconclusive: 2.31 µM [activator, partial curve] | –
Cc1ccc(-n2cc(CNC(C)Cn3cncn3)c(-c3ccc(F)cc3)n2)cc1 (centres undefined) | inconclusive: 25.9 µM [inhibitor, single point] | –
CCOc1ccc2nc(SCC(=O)N(C)C3CCS(=O)(=O)C3)[nH]c2c1 (centres undefined) | – | inactive: -1.04%
COc1ccc(S(=O)(=O)N2CCSC2c2ccc(OC)c(OC)c2)cc1 (centres undefined) | active: 23.1 µM | –
